Drawing on paper PMC5206647, this text covers binding for seven molecules.

Results are given in words; binding and its absence hold for the method and conditions named. A result given as binding can be weak or reduced; the word gives no strength. For some of these results: In cells and extracts the contact can be indirect.

T1: EvpB (recombinant) (E. piscicida EIB202)
T1 sequence: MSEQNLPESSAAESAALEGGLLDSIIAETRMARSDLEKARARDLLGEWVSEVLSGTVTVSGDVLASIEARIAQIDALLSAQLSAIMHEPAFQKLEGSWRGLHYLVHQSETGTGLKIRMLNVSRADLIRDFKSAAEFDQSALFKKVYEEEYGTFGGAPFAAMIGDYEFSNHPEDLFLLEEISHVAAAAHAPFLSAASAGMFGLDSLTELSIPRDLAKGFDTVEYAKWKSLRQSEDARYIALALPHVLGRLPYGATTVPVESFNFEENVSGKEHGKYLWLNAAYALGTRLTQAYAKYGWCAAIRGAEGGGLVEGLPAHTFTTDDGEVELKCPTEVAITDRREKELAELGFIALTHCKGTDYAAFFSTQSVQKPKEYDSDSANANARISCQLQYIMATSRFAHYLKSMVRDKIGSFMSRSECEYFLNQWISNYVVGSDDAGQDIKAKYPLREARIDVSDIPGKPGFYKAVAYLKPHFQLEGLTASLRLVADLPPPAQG

B1: EvpB (in the E. piscicida outer membrane protein fraction) (protein, UniProt A0AAU8P503 1-495)
chain: MSEQNLPESSAAESAALEGGLLDSIIAETRMARSDLEKARARDLLGEWVSEVLSGTVTVSGDVLASIEARIAQIDALLSAQLSAIMHEPAFQKLEGSWRGLHYLVHQSETGTGLKIRMLNVSRADLIRDFKSAAEFDQSALFKKVYEEEYGTFGGAPFAAMIGDYEFSNHPEDLFLLEEISHVAAAAHAPFLSAASAGMFGLDSLTELSIPRDLAKGFDTVEYAKWKSLRQSEDARYIALALPHVLGRLPYGATTVPVESFNFEENVSGKEHGKYLWLNAAYALGTRLTQAYAKYGWCAAIRGAEGGGLVEGLPAHTFTTDDGEVELKCPTEVAITDRREKELAELGFIALTHCKGTDYAAFFSTQSVQKPKEYDSDSANANARISCQLQYIMATSRFAHYLKSMVRDKIGSFMSRSECEYFLNQWISNYVVGSDDAGQDIKAKYPLREARIDVSDIPGKPGFYKAVAYLKPHFQLEGLTASLRLVADLPPPAQG

The target of one experiment is cathepsin K (recombinant) (not stated (Epinephelus coioides or Danio cDNA cloned)). Kind of experiment: co-IP; recombinant cathepsin K incubated with E. piscicida outer membrane proteins 2 h at room temperature; mouse antiserum against cathepsin K (pre-immune antiserum as control), nProtein A Sepharose 4 Fast Flow 12 h at 4 °C; eluted with glycine-HCl pH 2.4; blots with anti-EvpB, anti-ETAE_3048, anti-ETAE_0245; only the target purified.
With B1, the binding result is reported as “binds”.

The target in another experiment is T1, EvpB (recombinant) (E. piscicida EIB202). Kind of experiment: far-Western, overlay or dot blot; purified recombinant bacterial outer membrane proteins transferred to NC membranes as bait; purified recombinant liver proteins as prey, one at a time; detected with mouse antisera against the liver proteins, HRP-conjugated secondary antibody, DAB; both purified.
As to annexin max1 (recombinant), the binding entry is “binds”.

Turning to cathepsin K (recombinant) (enzyme), the binding entry is “binds”. On the same count and under the same terms, the same measure for “flavin-containing monooxygenase (recombinant) (enzyme)”: “binds”. As to hemoglobin beta chain (recombinant), the binding result is reported as “binds”. In the case of “hyperosmotic glycine-rich protein (recombinant)”, the binding result was “binds”. Still for that read-out and setting: the same measure for “immunoglobulin mu heavy chain (recombinant)”: “binds”.
